Assay results from publication PMC8192522.
Where two headings read alike, the source gives them in different places. These are yes or no findings as the source states them, for the method shown. In cells and extracts the contact can be indirect. Some binding calls cover weakened binding; strength is not graded here. For some assays here: Tags and fused reporters may be left off the sequences shown.

Chains of the proteins cited; added tags and fusions are not shown. Lines headed by an entry give the natural chain unless they say otherwise; changes in a name come on top.
UniProt Q04206: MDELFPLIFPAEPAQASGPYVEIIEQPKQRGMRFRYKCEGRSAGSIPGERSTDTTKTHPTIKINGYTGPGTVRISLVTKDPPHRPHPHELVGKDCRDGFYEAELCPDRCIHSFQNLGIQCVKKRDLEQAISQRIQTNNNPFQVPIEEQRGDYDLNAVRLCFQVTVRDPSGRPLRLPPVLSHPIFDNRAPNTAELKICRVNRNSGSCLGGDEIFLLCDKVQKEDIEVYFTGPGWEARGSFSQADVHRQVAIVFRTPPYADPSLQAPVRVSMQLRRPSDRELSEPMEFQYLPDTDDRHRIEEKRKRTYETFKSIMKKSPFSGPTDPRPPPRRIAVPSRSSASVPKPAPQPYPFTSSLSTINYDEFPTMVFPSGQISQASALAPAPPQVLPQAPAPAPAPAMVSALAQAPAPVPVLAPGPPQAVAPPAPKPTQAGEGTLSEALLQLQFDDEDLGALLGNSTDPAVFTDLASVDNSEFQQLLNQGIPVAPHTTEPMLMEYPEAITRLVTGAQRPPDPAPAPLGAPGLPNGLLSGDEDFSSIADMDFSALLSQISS
UniProt P34931: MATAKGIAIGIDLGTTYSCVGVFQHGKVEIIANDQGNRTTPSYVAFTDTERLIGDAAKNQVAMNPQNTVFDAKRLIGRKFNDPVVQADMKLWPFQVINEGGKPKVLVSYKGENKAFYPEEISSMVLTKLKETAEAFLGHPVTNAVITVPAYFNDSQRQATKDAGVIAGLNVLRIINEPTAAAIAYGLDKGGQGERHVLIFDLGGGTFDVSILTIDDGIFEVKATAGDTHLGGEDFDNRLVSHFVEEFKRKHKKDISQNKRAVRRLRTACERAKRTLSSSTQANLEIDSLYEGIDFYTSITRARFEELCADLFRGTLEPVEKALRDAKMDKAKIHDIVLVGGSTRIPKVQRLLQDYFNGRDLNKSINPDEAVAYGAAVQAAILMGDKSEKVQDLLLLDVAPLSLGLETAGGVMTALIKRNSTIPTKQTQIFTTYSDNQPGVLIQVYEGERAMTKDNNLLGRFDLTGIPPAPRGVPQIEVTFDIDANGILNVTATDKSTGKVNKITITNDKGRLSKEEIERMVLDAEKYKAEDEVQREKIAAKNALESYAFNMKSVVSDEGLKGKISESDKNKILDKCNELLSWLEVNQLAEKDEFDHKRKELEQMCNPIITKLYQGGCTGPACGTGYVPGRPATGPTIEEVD
UniProt Q9Y6K9: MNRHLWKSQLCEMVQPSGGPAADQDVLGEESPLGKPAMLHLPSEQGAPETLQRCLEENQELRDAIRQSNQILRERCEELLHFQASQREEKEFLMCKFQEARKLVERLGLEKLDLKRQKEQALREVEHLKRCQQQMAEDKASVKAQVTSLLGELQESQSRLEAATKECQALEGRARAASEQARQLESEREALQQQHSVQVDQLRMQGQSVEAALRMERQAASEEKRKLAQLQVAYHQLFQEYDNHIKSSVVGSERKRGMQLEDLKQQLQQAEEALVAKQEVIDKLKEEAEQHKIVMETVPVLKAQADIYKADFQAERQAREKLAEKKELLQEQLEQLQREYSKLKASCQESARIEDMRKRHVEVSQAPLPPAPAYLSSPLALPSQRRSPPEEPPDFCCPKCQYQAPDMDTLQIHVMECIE

Experiments:
[1] = biological target: T1, GST-tagged FKBP4 (GST-FKBP4) (human) (UniProt Q02790); assay: pull-down; GST-FKBP4 from bacterial lysate held on glutathione agarose (Pierce GST Protein Interaction Pull-Down Kit), 4 °C, eluted with 10 mM glutathione; source of the HA-tagged prey not stated
T1 sequence: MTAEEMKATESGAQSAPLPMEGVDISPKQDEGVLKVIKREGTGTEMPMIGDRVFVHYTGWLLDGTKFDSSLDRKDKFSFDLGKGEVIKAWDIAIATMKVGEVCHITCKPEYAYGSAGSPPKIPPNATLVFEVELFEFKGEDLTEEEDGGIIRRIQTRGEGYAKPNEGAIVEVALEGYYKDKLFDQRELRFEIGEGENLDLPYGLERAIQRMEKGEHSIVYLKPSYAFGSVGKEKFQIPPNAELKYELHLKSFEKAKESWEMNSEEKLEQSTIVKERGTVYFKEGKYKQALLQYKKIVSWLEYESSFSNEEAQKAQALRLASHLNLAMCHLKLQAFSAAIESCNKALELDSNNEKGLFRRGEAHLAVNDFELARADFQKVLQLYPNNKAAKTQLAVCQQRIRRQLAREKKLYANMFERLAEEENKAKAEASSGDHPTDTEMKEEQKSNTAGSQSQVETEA

[2] = biological target: T2, Flag-tagged FKBP4-deleted PPIase domains (Flag-FKBP4ΔPPIase; 17-253 AA-truncated mutant) (human) (UniProt Q02790); assay: co-IP; 293T cells transfected with Flag-FKBP4 wild type, ΔPPIase, ΔTPR or K354A; Hsp90 and IKK detected
T2 sequence: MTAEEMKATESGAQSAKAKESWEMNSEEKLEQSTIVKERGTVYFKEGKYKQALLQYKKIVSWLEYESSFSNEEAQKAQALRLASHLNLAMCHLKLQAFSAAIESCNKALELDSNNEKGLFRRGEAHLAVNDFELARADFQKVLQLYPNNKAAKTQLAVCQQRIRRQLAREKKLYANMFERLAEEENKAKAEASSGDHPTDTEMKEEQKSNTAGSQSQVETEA

[3] = biological target: T3, Flag-tagged FKBP4 full-length (Flag-FKBP4-WT) (human) (UniProt Q02790); assay: as above
T3 sequence: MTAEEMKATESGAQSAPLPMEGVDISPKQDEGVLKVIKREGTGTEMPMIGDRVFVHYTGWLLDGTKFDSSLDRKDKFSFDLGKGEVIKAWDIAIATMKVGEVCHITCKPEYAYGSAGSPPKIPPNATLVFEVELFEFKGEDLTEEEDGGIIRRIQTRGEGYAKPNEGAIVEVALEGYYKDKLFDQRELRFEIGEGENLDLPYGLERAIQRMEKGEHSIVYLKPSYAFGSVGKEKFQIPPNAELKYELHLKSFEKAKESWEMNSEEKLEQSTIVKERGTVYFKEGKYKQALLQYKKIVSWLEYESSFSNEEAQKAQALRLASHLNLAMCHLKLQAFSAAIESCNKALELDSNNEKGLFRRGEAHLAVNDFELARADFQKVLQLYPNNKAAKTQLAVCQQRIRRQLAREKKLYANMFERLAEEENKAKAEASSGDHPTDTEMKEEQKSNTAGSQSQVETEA

[4] = biological target: T4, endogenous FKBP4 (human (endogenous in H1975 and BEAS-2B)) (UniProt Q02790); assay: co-IP; endogenous proteins in H1975 and BEAS-2B cells, endogenous FKBP4 with its partners; lysis buffer 50 mM Tris-HCl pH 7.5, 150 mM NaCl, 1% Triton X-100, 0.1% Na-deoxycholate, 1 mM EDTA, 1 mM DTT
T4 sequence: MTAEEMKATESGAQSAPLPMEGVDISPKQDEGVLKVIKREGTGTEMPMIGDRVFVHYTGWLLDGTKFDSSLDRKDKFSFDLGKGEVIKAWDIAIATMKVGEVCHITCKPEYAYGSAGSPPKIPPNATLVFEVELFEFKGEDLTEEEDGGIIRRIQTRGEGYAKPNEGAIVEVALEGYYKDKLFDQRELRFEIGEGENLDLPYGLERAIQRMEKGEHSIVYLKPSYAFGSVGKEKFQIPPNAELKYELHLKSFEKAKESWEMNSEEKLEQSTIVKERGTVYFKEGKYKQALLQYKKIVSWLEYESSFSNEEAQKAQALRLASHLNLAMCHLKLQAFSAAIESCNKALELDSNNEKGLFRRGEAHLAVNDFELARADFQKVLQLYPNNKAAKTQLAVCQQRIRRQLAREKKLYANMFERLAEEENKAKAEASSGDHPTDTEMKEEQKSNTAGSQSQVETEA

[5] = biological target: T3, Flag-tagged FKBP4 full-length (Flag-FKBP4-WT) (human); assay: co-IP; 293T cells co-transfected with Flag-FKBP4 and HA-IKKα, HA-IKKβ, HA-IKKγ or HA-Hsp90; lysis buffer 50 mM Tris-HCl pH 7.5, 150 mM NaCl, 1% Triton X-100, 0.1% Na-deoxycholate, 1 mM EDTA, 1 mM DTT
[6] = biological target: T1, GST-tagged FKBP4 (GST-FKBP4) (human); assay: pull-down; GST-FKBP4 from bacterial lysate held on glutathione agarose (Pierce GST Protein Interaction Pull-Down Kit), 4 °C, eluted with 10 mM glutathione; source of the HA-tagged prey not stated; remark: listed apart in the source
[7] = biological target: T4, endogenous FKBP4 (human (endogenous in H1975 and BEAS-2B)); assay: co-IP; endogenous proteins in H1975 and BEAS-2B cells, endogenous FKBP4 with its partners; lysis buffer 50 mM Tris-HCl pH 7.5, 150 mM NaCl, 1% Triton X-100, 0.1% Na-deoxycholate, 1 mM EDTA, 1 mM DTT; remark: listed apart in the source

HA-RelA (from UniProt Q04206 1-551) was tested, and the binding [1] was “binds”.

With “Hsp70 (in the GST pull-down with GST-FKBP4) (from UniProt P34931 1-641)” the binding [1] was “binds”.

In the case of “IKKγ (co-IP with Flag-FKBP4 wild type and mutants in 293T cells, Fig. 4I) (from UniProt Q9Y6K9 1-419)”, the binding [2] is reported as “binds” and the binding [3] is reported as “binds”.

“endogenous Hsp70 (HSPA1L) (from UniProt P34931 1-641)” was tested, and the binding [4] was “binds”.

In the case of “endogenous RelA (from UniProt Q04206 1-551)”, the binding [4] is reported as “binds”.

With “hemagglutinin (HA)-tagged IKKγ (from UniProt Q9Y6K9 1-419)” the binding [1] was “binds” and the binding [5] was “binds”.

B1: hemagglutinin (HA)-tagged IKKβ (protein, UniProt O14920 1-756)
chain: MSWSPSLTTQTCGAWEMKERLGTGGFGNVIRWHNQETGEQIAIKQCRQELSPRNRERWCLEIQIMRRLTHPNVVAARDVPEGMQNLAPNDLPLLAMEYCQGGDLRKYLNQFENCCGLREGAILTLLSDIASALRYLHENRIIHRDLKPENIVLQQGEQRLIHKIIDLGYAKELDQGSLCTSFVGTLQYLAPELLEQQKYTVTVDYWSFGTLAFECITGFRPFLPNWQPVQWHSKVRQKSEVDIVVSEDLNGTVKFSSSLPYPNNLNSVLAERLEKWLQLMLMWHPRQRGTDPTYGPNGCFKALDDILNLKLVHILNMVTGTIHTYPVTEDESLQSLKARIQQDTGIPEEDQELLQEAGLALIPDKPATQCISDGKLNEGHTLDMDLVFLFDNSKITYETQISPRPQPESVSCILQEPKRNLAFFQLRKVWGQVWHSIQTLKEDCNRLQQGQRAAMMNLLRNNSCLSKMKNSMASMSQQLKAKLDFFKTSIQIDLEKYSEQTEFGITSDKLLLAWREMEQAVELCGRENEVKLLVERMMALQTDIVDLQRSPMGRKQGGTLDDLEEQARELYRRLREKPRDQRTEGDSQEMVRLLLQAIQSFEKKVRVIYTQLSKTVVCKQKALELLPKVEEVVSLMNEDEKTVVRLQEKRQKELWNLLKIACSKVRGPVSGSPDSMNASRLSQPGQLMSQPSTASNSLPEPAKKSEELVAEAHNLCTLLENAIQDTVREQDQSFTALDWSWLQTEEEEHSCLEQAS
For B1, the binding [6] was “binds” and the binding [5] was “binds”.

B2: endogenous IKKβ (protein, UniProt O14920 1-756)
chain: MSWSPSLTTQTCGAWEMKERLGTGGFGNVIRWHNQETGEQIAIKQCRQELSPRNRERWCLEIQIMRRLTHPNVVAARDVPEGMQNLAPNDLPLLAMEYCQGGDLRKYLNQFENCCGLREGAILTLLSDIASALRYLHENRIIHRDLKPENIVLQQGEQRLIHKIIDLGYAKELDQGSLCTSFVGTLQYLAPELLEQQKYTVTVDYWSFGTLAFECITGFRPFLPNWQPVQWHSKVRQKSEVDIVVSEDLNGTVKFSSSLPYPNNLNSVLAERLEKWLQLMLMWHPRQRGTDPTYGPNGCFKALDDILNLKLVHILNMVTGTIHTYPVTEDESLQSLKARIQQDTGIPEEDQELLQEAGLALIPDKPATQCISDGKLNEGHTLDMDLVFLFDNSKITYETQISPRPQPESVSCILQEPKRNLAFFQLRKVWGQVWHSIQTLKEDCNRLQQGQRAAMMNLLRNNSCLSKMKNSMASMSQQLKAKLDFFKTSIQIDLEKYSEQTEFGITSDKLLLAWREMEQAVELCGRENEVKLLVERMMALQTDIVDLQRSPMGRKQGGTLDDLEEQARELYRRLREKPRDQRTEGDSQEMVRLLLQAIQSFEKKVRVIYTQLSKTVVCKQKALELLPKVEEVVSLMNEDEKTVVRLQEKRQKELWNLLKIACSKVRGPVSGSPDSMNASRLSQPGQLMSQPSTASNSLPEPAKKSEELVAEAHNLCTLLENAIQDTVREQDQSFTALDWSWLQTEEEEHSCLEQAS
With B2 the binding [7] was “binds”.
